In the odorant receptor screen of Mainland et al. (2015) one finds odorant receptor activation data, which are given here for 9 molecules.

Structures are written as SMILES. Values joined by “and” are separate entries in the source; they are usually repeats but may differ in a detail not shown here. Equal values may be shown once. The list shows a part of the results. Single wells; the ratio to wells without odorant was worked out here, and repeats agree poorly.

Some test systems named below: OR14L1 clone 1029; OR1A1 P285S clone 1531; OR1A1 R128H clone 1528; OR1A1 V233M clone 1287; OR1A1 V233M clone 1530; OR1A1 clone 1529; OR1A2 clone 1158; OR1C1 clone 1044; OR1D2 clone 1376; OR1D5 clone 1289; OR1E1 clone 1257; OR1E2 C27R clone 1447; OR1E2 clone 1517; OR1F1 F75S clone 1281; OR1G1 clone 1488; OR1D5 clone 1692; OR1F12 clone 1694; OR1J1 clone 1696; OR1E1 clone 1546.

Holding throughout (assay): odorant receptor activation (CRE luciferase / Renilla) (fold of no-odor wells); higher = more activation
Details in all cases: 100 µM

Assay [1] relates to OR1I1 P139R/Y252S clone 1468.

As to `CC1=NC(C)SC1C` (stereo not drawn), the odorant receptor activation in the assay with OR14L1 clone 1029 was 0.787; in the assay with OR1A1 P285S clone 1531, 1.01 and 1.12; in the assay on OR1A1 R128H clone 1528 it was 0.793 and 0.995; in the assay on OR1A1 V233M clone 1287 it was 1.78; with OR1A1 V233M clone 1530, 1.3 and 1.29; in the assay on OR1A1 clone 1529, 0.672 and 1.13. Also, the odorant receptor activation with OR1A2 clone 1158 turned out to be 0.903; with OR1C1 clone 1044, 0.948; with OR1D2 clone 1376, 1.08; in the assay on OR1D5 clone 1289, 1.05; with OR1E1 clone 1257, 0.862; in the assay on OR1E2 C27R clone 1447, 1.27. Further, the odorant receptor activation in the assay on OR1E2 clone 1517 was 0.748 and 1.04; in the assay with OR1F1 F75S clone 1281 it was 0.658; with OR1G1 clone 1488, 0.886 and 0.822; in [1] it was 1.04 and 0.794.
Consider `CC(=O)c1ccccc1` [acetophenone], for which the odorant receptor activation with OR14L1 clone 1029 is 0.566; in the assay on OR1A1 P285S clone 1531, 1.49 and 0.806; in the assay on OR1A1 R128H clone 1528, 0.963 and 0.882; with OR1A1 V233M clone 1287, 1.82; in the assay with OR1A1 V233M clone 1530, 1.37 and 1.18; in the assay on OR1A1 clone 1529, 0.752 and 1.22. Moreover, the odorant receptor activation is 1.31 in the assay with OR1A2 clone 1158; 0.812 in the assay on OR1C1 clone 1044; 1.01 in the assay with OR1D2 clone 1376; 0.802 with OR1D5 clone 1289; 1.53 in the assay with OR1E1 clone 1257; 1.12 in the assay on OR1E2 C27R clone 1447. Besides, the odorant receptor activation in the assay on OR1E2 clone 1517 is 1.01 and 0.775; in the assay on OR1F1 F75S clone 1281, 0.857; with OR1G1 clone 1488, 0.945 and 0.796; in [1], 0.897 and 0.472.
As to `CC(C)(O)CCCC1=CCC(C=O)CC1` (stereo not drawn) [lyral], the odorant receptor activation in the assay on OR1A1 V233M clone 1287 was determined as 1.43; in the assay on OR1D5 clone 1692 it was 0.814; with OR1F12 clone 1694 it was 0.944; in the assay on OR1J1 clone 1696, 0.992.
As for `C=C(C)C1CC=CCC1` (stereo not drawn) [r-limonene], the odorant receptor activation in the assay on OR14L1 clone 1029 is 1.6 and 1.16; in the assay on OR1A1 V233M clone 1530 it was 5.3 and 1.79 and 2.31; with OR1A2 clone 1158, 1.17 and 0.554; in the assay with OR1C1 clone 1044, 0.962 and 1.68; in the assay on OR1D2 clone 1376 it was 1.13 and 0.96; with OR1D5 clone 1692, 1.05. Besides, the odorant receptor activation in the assay with OR1E1 clone 1546 is 0.978; with OR1E2 C27R clone 1447 it was 1.04 and 0.981; in the assay with OR1E2 clone 1517, 0.966 and 1.05 and 0.847; in the assay on OR1F1 F75S clone 1281 it was 0.82 and 0.328; in the assay on OR1F12 clone 1694, 1.12; in the assay on OR1G1 clone 1488 it was 1.17 and 0.45 and 0.901. In addition, the odorant receptor activation was 0.957 and 1.06 and 0.493 in assay [1]; 1.2 in the assay with OR1J1 clone 1696.
With `CCCCCOC(C)=O` [n-amyl acetate], the odorant receptor activation is 0.787 in the assay on OR14L1 clone 1029; 1.05 and 1.18 with OR1A1 P285S clone 1531; 0.819 and 0.931 in the assay on OR1A1 R128H clone 1528; 0.779 and 2.05 in the assay on OR1A1 V233M clone 1287; 1.62 and 1.63 in the assay on OR1A1 V233M clone 1530; 0.567 and 1.52 in the assay with OR1A1 clone 1529. For the same molecule, the odorant receptor activation is 0.814 in the assay on OR1A2 clone 1158; 1.88 with OR1C1 clone 1044; 0.909 with OR1D2 clone 1376; 0.329 with OR1D5 clone 1289; 0.778 with OR1D5 clone 1692; 0.671 in the assay on OR1E1 clone 1257. The odorant receptor activation in the assay on OR1E2 C27R clone 1447 is 0.878; in the assay with OR1E2 clone 1517, 0.909 and 0.793; with OR1F1 F75S clone 1281 it was 0.408; with OR1F12 clone 1694 it was 1.07; with OR1G1 clone 1488, 0.496 and 0.754; in assay [1], 0.934 and 0.457. The molecule also gave an odorant receptor activation in the assay with OR1J1 clone 1696 of 0.928.
Take `CC(C)C=O` [isobutyraldehyde]: the odorant receptor activation was 1.87 with OR14L1 clone 1029; 0.635 and 0.81 in the assay on OR1A1 P285S clone 1531; 0.942 and 1.11 in the assay on OR1A1 R128H clone 1528; 1.06 and 1.19 in the assay with OR1A1 V233M clone 1530; 0.809 and 1.21 in the assay on OR1A1 clone 1529; 0.822 in the assay with OR1A2 clone 1158. The odorant receptor activation with OR1C1 clone 1044 was 0.604; in the assay with OR1D2 clone 1376 it was 0.978; in the assay with OR1D5 clone 1289, 0.853 and 0.826; in the assay with OR1D5 clone 1692, 0.865; in the assay with OR1E1 clone 1257, 0.969 and 1.15; in the assay on OR1E1 clone 1546, 1.02 and 1.18. Further, the odorant receptor activation with OR1E2 C27R clone 1447 is 0.851; in the assay on OR1E2 clone 1517, 0.759 and 1.19; in the assay with OR1F1 F75S clone 1281 it was 0.915 and 0.876; in the assay with OR1F12 clone 1694 it was 1.04; with OR1G1 clone 1488, 1.04 and 1.06; in assay [1] it was 0.843 and 0.985. Further, in the assay with OR1J1 clone 1696, the odorant receptor activation came out at 0.946.
Turning to `CCCCCC(C)=O` [2-heptanone], the odorant receptor activation in the assay with OR14L1 clone 1029 was 0.597; in the assay with OR1A1 P285S clone 1531, 2.16 and 0.816; in the assay with OR1A1 R128H clone 1528 it was 0.84 and 0.714; in the assay on OR1A1 V233M clone 1287, 5.38; with OR1A1 V233M clone 1530, 1.38 and 1.03; with OR1A1 clone 1529 it was 1.15 and 1.02. In addition, the odorant receptor activation is 1.03 with OR1A2 clone 1158; 0.562 in the assay with OR1C1 clone 1044; 1.27 in the assay with OR1D2 clone 1376; 0.628 with OR1D5 clone 1289; 0.582 with OR1E1 clone 1257; 1.06 in the assay with OR1E2 C27R clone 1447. Further, the odorant receptor activation in the assay on OR1E2 clone 1517 was 0.844 and 0.543; with OR1F1 F75S clone 1281, 0.827; in the assay with OR1G1 clone 1488, 0.857 and 0.691.
In the case of `CC(C)C(=O)O` [isobutyric acid], the odorant receptor activation was 2.24 with OR14L1 clone 1029; 0.884 and 0.724 in the assay on OR1A1 P285S clone 1531; 0.941 and 0.745 in the assay on OR1A1 R128H clone 1528; 0.977 and 0.798 in the assay with OR1A1 V233M clone 1530; 0.859 and 1.01 with OR1A1 clone 1529; 0.885 with OR1A2 clone 1158. Also, the odorant receptor activation was 0.574 in the assay on OR1C1 clone 1044; 0.852 with OR1D2 clone 1376; 0.708 and 1.18 in the assay on OR1D5 clone 1289; 0.758 with OR1D5 clone 1692; 1.09 and 1.04 in the assay with OR1E1 clone 1257; 1.05 and 0.919 with OR1E1 clone 1546. Further, the odorant receptor activation was 0.774 in the assay on OR1E2 C27R clone 1447; 0.912 and 0.963 in the assay with OR1E2 clone 1517; 1.1 and 0.856 in the assay on OR1F1 F75S clone 1281; 1.09 in the assay on OR1F12 clone 1694; 1 and 0.891 in the assay on OR1G1 clone 1488; 1.01 and 1.13 in [1]. Also, the odorant receptor activation in the assay with OR1J1 clone 1696 was 0.851.
In the case of `CCCCCCC=O` [heptaldehyde], the odorant receptor activation with OR14L1 clone 1029 is 1.03 and 1.49; with OR1A2 clone 1158, 0.536 and 0.728; in the assay with OR1C1 clone 1044 it was 1.39 and 0.72; with OR1D2 clone 1376, 1.19 and 1.23; in the assay on OR1D5 clone 1289, 0.305 and 0.908 and 0.66; in the assay with OR1D5 clone 1692 it was 0.985. In addition, the odorant receptor activation in the assay with OR1E1 clone 1546 was 1.25 and 1.15; with OR1E2 C27R clone 1447, 0.989 and 0.888; in the assay with OR1F1 F75S clone 1281, 0.661 and 1.21 and 0.822; in the assay on OR1F12 clone 1694, 0.659; in the assay with OR1J1 clone 1696 it was 0.693.
